# Patent publication US20030129629A1, “Methods and compositions for the identification, assessment, prevention, and therapy of human cancers” (Millennium Pharmaceuticals, Inc., priority 2000, published 2003)
# Several values for one entry are separate records, joined by “and”; a condition that tells them apart may be missing. Equal values may be shown once. At least one read-out could not be matched to a standard name with certainty.
# Test system: 60 cancer cell lines (NCI 60 cancer cell line series)
# Experiment: NCI-DTP in vitro cancer screen, sulforhodamine B (SRB) growth inhibition, 48 hour exposure
# Format: cell-based, human
# Description: Cancer Cell Line Preparation. Sixty cancer cell lines were obtained from the National Cancer Institute Developmental Therapeutics Program (NCI-DTP). Procedures for growing cells and testing compounds have been described previously (Scudiero et al., Cancer Res. 1988, 48:4827-4833; Stinson et al., Anticancer Res.; Myers et al., Electrophoresis 1997, 18:647-653). Cells are plated on day 0 at a density individualized for each cell line so that they will generally be sub-confluent at the end of the assay period. On day 1, a compound is added in the format for a duplicate-well, 5-dose, ten-fold interval dose response study.
# No-drug, no-cell and no-growth controls are included. On day 3 the cells are processed for staining with sulforhodamine B (SRB), which reflects the amount of cell mass present at the end of a 48 hour exposure to the test agent. From dose response curves based on the SRB data, various parameters can be determined. […] More precisely, the quantity used in the calculation to be described is the potency measure −log{GI50}.
# Activity database (A). […] This subset of compounds was selected from the larger 23,000 compound database available from the DTP. The compounds were selected on the basis of their known mechanism of action and chemical structure. The average potency −log{GI50} was extracted from the comma-delimited text files available through the Web at http://www.nci.nih.gov/intra/lmp/jnwbio.html. Subsequently, these −log{GI50} values were inspected manually and classified as indicating either Low, Medium or High sensitivity to each compound.
smiles,measurement,setting,value
COc1cccc2c1C(=O)c1c(O)c3c(c(O)c1C2=O)C[C@@](O)(C(C)=O)C[C@@H]3O[C@H]1C[C@H](N)[C@H](O)[C@H](C)O1 [Daunorubicin],"classification of cell line as Low(1), Medium(2), High(3) sensitivity to compound",Breast HS-578T CL5006,1 and 2
same,"classification of cell line as Low(1), Medium(2), High(3) sensitivity to compound",CNS SF-539 CL12016,2 and 3
same,"classification of cell line as Low(1), Medium(2), High(3) sensitivity to compound",Colon KM12 CL4017,1 and 2
same,"classification of cell line as Low(1), Medium(2), High(3) sensitivity to compound",Leukemia K562(I) CL7005,2 and 3
same,"classification of cell line as Low(1), Medium(2), High(3) sensitivity to compound",Leukemia RPMI-8226(I) CL7010,2 and 3
same,"classification of cell line as Low(1), Medium(2), High(3) sensitivity to compound",Melanoma LOX IMVI CL10001,2 and 3
same,"classification of cell line as Low(1), Medium(2), High(3) sensitivity to compound",Melanoma SK-MEL-2 CL10005,1 and 2
same,sensitivity classification Low(1)/Medium(2)/High(3),Ovarian SK-OV-3 CL6011,1 and 2
